Experimental data from publication PMC4477410.
These are yes or no findings as the source states them, for the method shown. In cells and extracts the contact can be indirect. Some binding calls cover weakened binding; strength is not graded here. For part of these data: Where a sequence is shown, tags or fusion partners need not be part of it.

Amino acid sequences for entries named in this document (tags omitted).
UniProt P12369: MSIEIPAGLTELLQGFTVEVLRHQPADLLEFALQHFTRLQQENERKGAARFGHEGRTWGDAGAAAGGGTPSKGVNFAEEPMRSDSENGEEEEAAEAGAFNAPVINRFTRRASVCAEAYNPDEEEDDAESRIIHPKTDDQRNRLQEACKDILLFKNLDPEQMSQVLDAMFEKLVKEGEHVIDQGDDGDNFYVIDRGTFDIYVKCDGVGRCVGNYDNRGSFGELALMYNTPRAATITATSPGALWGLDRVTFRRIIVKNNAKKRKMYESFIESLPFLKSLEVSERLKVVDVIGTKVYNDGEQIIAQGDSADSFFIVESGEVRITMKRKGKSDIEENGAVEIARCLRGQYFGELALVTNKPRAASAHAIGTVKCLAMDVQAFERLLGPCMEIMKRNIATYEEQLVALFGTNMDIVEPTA

Key:
[1] = target: PKA regulatory subunit type II beta (RIIb), Rluc PCA hybrid protein (UniProt P12369); experiment: split reporter; Rluc PCA; bait-F[1] and prey-F[2] hybrid constructs transiently over-expressed in HEK293 cells; intact cells in PBS, luminescence with 5 uM benzyl-coelenterazine; RIIb:PKAc also 1-48 h after transfection, with forskolin (50 uM or doses) and in 1536-well format
[2] = target: T1, Tpk2 (yeast PKA catalytic subunit), Rluc PCA fusion (S. cerevisiae) (UniProt P06245); experiment: split reporter; Rluc PCA in S. cerevisiae MATa cells grown in galactose medium; about 1 x 10^6 cells, 10 uM benzyl-coelenterazine; with glucose (100 mM) or galactose
T1 sequence: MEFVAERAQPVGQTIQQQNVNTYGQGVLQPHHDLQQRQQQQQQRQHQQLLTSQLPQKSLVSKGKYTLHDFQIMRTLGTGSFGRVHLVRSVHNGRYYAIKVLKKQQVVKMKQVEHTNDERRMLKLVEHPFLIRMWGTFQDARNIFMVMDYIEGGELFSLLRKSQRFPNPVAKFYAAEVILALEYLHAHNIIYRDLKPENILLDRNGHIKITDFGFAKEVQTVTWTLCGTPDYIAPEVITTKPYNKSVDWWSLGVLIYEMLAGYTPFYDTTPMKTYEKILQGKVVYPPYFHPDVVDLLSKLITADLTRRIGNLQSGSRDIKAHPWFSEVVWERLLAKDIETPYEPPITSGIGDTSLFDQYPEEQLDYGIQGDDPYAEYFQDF

[3] = target: T2, Tpk2 (yeast PKA catalytic subunit), Venus PCA fusion (S. cerevisiae) (UniProt P06245); experiment: split reporter; Venus-YFP PCA in S. cerevisiae MATa cells grown in low fluorescent galactose medium; fluorescence microscopy
T2 sequence: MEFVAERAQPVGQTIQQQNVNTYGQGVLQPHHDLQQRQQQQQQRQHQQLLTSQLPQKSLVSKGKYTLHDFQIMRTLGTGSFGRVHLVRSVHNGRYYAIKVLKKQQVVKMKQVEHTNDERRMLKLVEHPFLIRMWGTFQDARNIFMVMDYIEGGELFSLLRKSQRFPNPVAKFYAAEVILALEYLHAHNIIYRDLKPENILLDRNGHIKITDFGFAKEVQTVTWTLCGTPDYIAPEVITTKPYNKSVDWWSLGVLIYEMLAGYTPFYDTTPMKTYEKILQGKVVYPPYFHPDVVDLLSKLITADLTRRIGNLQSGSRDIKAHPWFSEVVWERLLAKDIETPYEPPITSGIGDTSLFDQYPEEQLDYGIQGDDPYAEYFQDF

“PKA regulatory subunit type I alpha (RIa), Rluc PCA hybrid protein (from UniProt P10644-1 1-381)” was tested. Which binding [1] did it give?
Its binding is “no binding”.

B1: Bcy1 (yeast PKA regulatory subunit), Rluc PCA fusion (protein, UniProt P07278 1-416)
chain: MVSSLPKESQAELQLFQNEINAANPSDFLQFSANYFNKRLEQQRAFLKAREPEFKAKNIVLFPEPEESFSRPQSAQSQSRSRSSVMFKSPFVNEDPHSNVFKSGFNLDPHEQDTHQQAQEEQQHTREKTSTPPLPMHFNAQRRTSVSGETLQPNNFDDWTPDHYKEKSEQQLQRLEKSIRNNFLFNKLDSDSKRLVINCLEEKSVPKGATIIKQGDQGDYFYVVEKGTVDFYVNDNKVNSSGPGSSFGELALMYNSPRAATVVATSDCLLWALDRLTFRKILLGSSFKKRLMYDDLLKSMPVLKSLTTYDRAKLADALDTKIYQPGETIIREGDQGENFYLIEYGAVDVSKKGQGVINKLKDHDYFGEVALLNDLPRQATVTATKRTKVATLGKSGFQRLLGPAVDVLKLNDPTRH
With B1 as the molecule, how does the binding [2] read?
The binding was “binds”.

B2: Bcy1 (yeast PKA regulatory subunit), Venus PCA fusion (protein, UniProt P07278 1-416)
chain: MVSSLPKESQAELQLFQNEINAANPSDFLQFSANYFNKRLEQQRAFLKAREPEFKAKNIVLFPEPEESFSRPQSAQSQSRSRSSVMFKSPFVNEDPHSNVFKSGFNLDPHEQDTHQQAQEEQQHTREKTSTPPLPMHFNAQRRTSVSGETLQPNNFDDWTPDHYKEKSEQQLQRLEKSIRNNFLFNKLDSDSKRLVINCLEEKSVPKGATIIKQGDQGDYFYVVEKGTVDFYVNDNKVNSSGPGSSFGELALMYNSPRAATVVATSDCLLWALDRLTFRKILLGSSFKKRLMYDDLLKSMPVLKSLTTYDRAKLADALDTKIYQPGETIIREGDQGENFYLIEYGAVDVSKKGQGVINKLKDHDYFGEVALLNDLPRQATVTATKRTKVATLGKSGFQRLLGPAVDVLKLNDPTRH
For B2, which binding [3] is on record?
The binding was “binds”.
